What was measured:
K562-IR cells = test: cells; conditions: Homo sapiens, read-out: Growth Inhibition IC50 (95% CI)
K562-NR cells = test: cells; conditions: Homo sapiens, read-out: Growth Inhibition IC50 (95% CI)

- IC50 (K562-IR cells): 1.33 µM
- IC50 (K562-NR cells): 9.01 µM
Compound: Cc1ccc(NC(=O)c2ccc(CN3CCN(C)CC3)cc2)cc1Nc1nccc(-c2cccnc2)n1 [imatinib]

Source: PMC5012566, “A Cell-Based Assay for Measuring Endogenous BcrAbl Kinase Activity and Inhibitor Resistance” (PLoS ONE, 2016)
